Test results reported in article PMC9800341, “THOC5 complexes with DDX5, DDX17, and CDK12 to regulate R loop structures and transcription elongation rate”.

Sequences of proteins named here, by UniProt entry; tags and fusion partners are left off.
UniProt P17844: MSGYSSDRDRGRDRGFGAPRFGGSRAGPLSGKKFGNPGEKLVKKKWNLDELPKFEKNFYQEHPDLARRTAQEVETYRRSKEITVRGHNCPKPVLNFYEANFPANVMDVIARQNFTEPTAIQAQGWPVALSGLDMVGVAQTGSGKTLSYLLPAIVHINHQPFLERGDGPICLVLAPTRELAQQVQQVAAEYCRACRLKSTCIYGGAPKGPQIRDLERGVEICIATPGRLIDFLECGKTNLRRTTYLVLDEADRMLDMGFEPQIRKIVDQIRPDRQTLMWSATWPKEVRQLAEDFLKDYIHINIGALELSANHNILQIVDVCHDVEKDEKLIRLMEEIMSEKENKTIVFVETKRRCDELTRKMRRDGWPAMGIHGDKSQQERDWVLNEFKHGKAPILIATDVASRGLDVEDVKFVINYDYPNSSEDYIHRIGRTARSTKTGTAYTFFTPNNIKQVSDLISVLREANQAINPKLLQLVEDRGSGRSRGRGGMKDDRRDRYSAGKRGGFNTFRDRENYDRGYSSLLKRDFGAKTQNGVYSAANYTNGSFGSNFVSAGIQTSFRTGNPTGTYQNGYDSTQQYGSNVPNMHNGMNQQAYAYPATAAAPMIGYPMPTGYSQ
UniProt O43143: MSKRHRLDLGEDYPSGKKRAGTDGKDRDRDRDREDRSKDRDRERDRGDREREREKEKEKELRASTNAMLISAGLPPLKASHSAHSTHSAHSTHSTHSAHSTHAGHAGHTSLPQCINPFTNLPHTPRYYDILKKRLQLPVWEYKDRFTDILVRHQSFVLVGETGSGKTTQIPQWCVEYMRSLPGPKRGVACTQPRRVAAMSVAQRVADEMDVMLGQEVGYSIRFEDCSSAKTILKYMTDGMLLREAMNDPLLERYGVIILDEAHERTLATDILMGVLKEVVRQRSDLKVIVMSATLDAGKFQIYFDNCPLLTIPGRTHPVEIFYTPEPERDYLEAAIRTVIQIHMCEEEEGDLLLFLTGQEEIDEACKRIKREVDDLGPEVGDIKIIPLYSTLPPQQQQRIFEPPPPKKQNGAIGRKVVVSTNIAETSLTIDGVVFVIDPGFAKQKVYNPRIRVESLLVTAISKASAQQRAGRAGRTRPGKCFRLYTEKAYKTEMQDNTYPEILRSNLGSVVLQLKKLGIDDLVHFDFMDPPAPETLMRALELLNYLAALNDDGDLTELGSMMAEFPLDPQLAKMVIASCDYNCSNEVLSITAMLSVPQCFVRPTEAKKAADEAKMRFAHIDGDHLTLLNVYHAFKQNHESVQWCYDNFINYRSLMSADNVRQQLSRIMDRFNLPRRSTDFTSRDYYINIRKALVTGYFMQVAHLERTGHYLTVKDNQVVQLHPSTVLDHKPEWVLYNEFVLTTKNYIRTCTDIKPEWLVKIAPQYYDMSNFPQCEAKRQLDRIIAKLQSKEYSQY
UniProt Q92841: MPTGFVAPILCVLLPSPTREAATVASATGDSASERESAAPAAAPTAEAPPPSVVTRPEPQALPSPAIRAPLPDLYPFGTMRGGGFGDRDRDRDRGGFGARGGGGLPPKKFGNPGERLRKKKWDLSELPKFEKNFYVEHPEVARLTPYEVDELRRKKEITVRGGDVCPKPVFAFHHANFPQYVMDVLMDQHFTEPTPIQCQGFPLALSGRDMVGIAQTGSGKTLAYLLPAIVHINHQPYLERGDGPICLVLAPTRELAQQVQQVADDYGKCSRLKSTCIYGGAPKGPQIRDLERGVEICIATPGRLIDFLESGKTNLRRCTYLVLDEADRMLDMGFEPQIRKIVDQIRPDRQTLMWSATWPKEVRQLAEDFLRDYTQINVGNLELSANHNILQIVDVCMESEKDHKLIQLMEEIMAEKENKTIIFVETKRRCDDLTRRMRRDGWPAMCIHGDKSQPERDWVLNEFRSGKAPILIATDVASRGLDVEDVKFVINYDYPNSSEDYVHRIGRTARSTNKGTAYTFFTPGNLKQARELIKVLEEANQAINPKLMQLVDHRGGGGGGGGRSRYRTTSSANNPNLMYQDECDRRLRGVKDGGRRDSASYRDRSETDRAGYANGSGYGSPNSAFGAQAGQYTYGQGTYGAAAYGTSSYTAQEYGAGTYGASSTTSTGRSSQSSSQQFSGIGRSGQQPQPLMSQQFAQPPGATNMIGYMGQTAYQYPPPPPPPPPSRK

T1: THOC5 (chromatin-associated, endogenous) (human (endogenous in HEK293)) (UniProt Q13769)
T1 sequence: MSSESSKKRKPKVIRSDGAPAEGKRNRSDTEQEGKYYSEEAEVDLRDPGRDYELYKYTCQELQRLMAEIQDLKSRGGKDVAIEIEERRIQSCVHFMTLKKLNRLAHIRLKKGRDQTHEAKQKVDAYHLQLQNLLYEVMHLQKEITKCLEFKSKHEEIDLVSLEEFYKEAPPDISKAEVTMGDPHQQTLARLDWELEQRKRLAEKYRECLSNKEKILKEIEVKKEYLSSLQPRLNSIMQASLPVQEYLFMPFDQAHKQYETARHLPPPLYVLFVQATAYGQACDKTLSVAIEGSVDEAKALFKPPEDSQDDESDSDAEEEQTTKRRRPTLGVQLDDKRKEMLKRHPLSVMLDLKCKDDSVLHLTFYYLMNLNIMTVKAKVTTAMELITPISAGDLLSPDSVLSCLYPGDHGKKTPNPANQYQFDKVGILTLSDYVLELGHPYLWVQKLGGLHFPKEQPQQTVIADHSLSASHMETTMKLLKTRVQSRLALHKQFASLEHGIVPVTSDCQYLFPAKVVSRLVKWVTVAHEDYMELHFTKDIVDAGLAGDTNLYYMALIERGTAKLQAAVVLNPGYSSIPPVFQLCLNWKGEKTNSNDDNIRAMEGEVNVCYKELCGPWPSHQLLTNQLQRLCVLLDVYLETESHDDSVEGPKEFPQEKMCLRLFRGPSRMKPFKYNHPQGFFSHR


Experiments:
[1] = target: T1, THOC5 (chromatin-associated, endogenous) (human (endogenous in HEK293)); test: affinity purification with mass spectrometry; endogenous THOC5 precipitated with mouse monoclonal anti-THOC5 on Protein G Agarose-PLUS from the chromatin-associated fraction of HEK293 cells expressing slow Pol II (fast Pol II cells in parallel, see a2); 150 mM NaCl, 0.5% NP-40, RNAse A, 8 h at 4°C; proteins also found with control IgG …
[2] = target: T1, THOC5 (chromatin-associated, endogenous) (human (endogenous in HEK293)); test: as above; remark: listed apart in the source

| Molecule | binding [1] | binding [2] |
| --- | --- | --- |
| DEAD box helicase DDX5 (endogenous) (from UniProt P17844 1-614) | binds | – |
| DEAH box helicase DHX15 (endogenous) (from UniProt O43143 1-795) | binds | – |
| THOC6 (endogenous) (protein, UniProt Q86W42 1-341) MERAVPLAVPLGQTEVFQALQRLHMTIFSQSVSPCGKFLAAGNNYGQIAIFSLSSALSSEAKEESKKPVVTFQAHDGPVYSMVSTDRHLLSAGDGEVKAWLWAEMLKKGCKELWRRQPPYRTSLEVPEINALLLVPKENSLILAGGDCQLHTMDLETGTFTRVLRGHTDYIHCLALRERSPEVLSGGEDGAVRLWDLRTAKEVQTIEVYKHEECSRPHNGRWIGCLATDSDWMVCGGGPALTLWHLRSSTPTTIFPIRAPQKHVTFYQDLILSAGQGRCVNQWQLSGELKAQVPGSSPGLLSLSLNQQPAAPECKVLTAAGNSCRVDVFTNLGYRAFSLSF | – | binds |

Now from value to molecule:

| binding [1] | binding [2] | Molecule |
| --- | --- | --- |
| binds | – | DEAD box helicase DDX17 (endogenous) (from UniProt Q92841 1-729) |
| – | binds | DEAD box helicase DDX50 (endogenous) (protein, UniProt Q9BQ39 1-737) MPGKLLWGDIMELEAPLEESESQKKERQKSDRRKSRHHYDSDEKSETRENGVTDDLDAPKAKKSKMKEKLNGDTEEGFNRLSDEFSKSHKSRRKDLPNGDIDEYEKKSKRVSSLDTSTHKSSDNKLEETLTREQKEGAFSNFPISEETIKLLKGRGVTYLFPIQVKTFGPVYEGKDLIAQARTGTGKTFSFAIPLIERLQRNQETIKKSRSPKVLVLAPTRELANQVAKDFKDITRKLSVACFYGGTSYQSQINHIRNGIDILVGTPGRIKDHLQSGRLDLSKLRHVVLDEVDQMLDLGFAEQVEDIIHESYKTDSEDNPQTLLFSATCPQWVYKVAKKYMKSRYEQVDLVGKMTQKAATTVEHLAIQCHWSQRPAVIGDVLQVYSGSEGRAIIFCETKKNVTEMAMNPHIKQNAQCLHGDIAQSQREITLKGFREGSFKVLVATNVAARGLDIPEVDLVIQSSPPQDVESYIHRSGRTGRAGRTGICICFYQPRERGQLRYVEQKAGITFKRVGVPSTMDLVKSKSMDAIRSLASVSYAAVDFFRPSAQRLIEEKGAVDALAAALAHISGASSFEPRSLITSDKGFVTMTLESLEEIQDVSCAWKELNRKLSSNAVSQITRMCLLKGNMGVCFDVPTTESERLQAEWHDSDWILSVPAKLPEIEEYYDGNTSSNSRQRSGWSSGRSGRSGRSGGRSGGRSGRQSRQGSRSGSRQDGRRRSGNRNRSRSGGHKRSFD |

Like-named read-outs stand apart in the source and are kept apart here. No constants are given. Whether binding was seen depends on the method and setting. In cells and extracts the contact can be indirect. These calls come from enrichment with a bait or labelling near it, and not all partners need be listed.
